According to PMC7199514 (Frontiers in Chemistry, 2020):

Experiments:
A549 cells [1] = test: Intracellular distribution by ToF-SIMS imaging; type: cell-based, human; settings: 30 μM, 310 K
A549 cells [2] = test: Cellular uptake and distribution by ICP-MS; type: cell-based, human; settings: 30 μM, 24 h

SMILES: COc1cc2ncnc(Nc3ccc(F)c(Cl)c3)c2cc1OCCCn1cc[n+]([Pt-2]23[n+]4ccccc4-c4cc(-c5ccc(C)cc5)cc([n+]42)-c2cccc[n+]23)c1.F[P-](F)(F)(F)(F)F.F[P-](F)(F)(F)(F)F [Complex 2]
- distribution of Pt-containing fragment signals in the cell (A549 cells [1]; 3 h): observed more in the cell membrane/cytoplasm and less in the nucleus
- Pt incorporated to DNA (A549 cells [2]): 0.19 ± 0.03 nmol Pt to 1 mg DNA
- Pt incorporated to membrane protein (A549 cells [2]): 0.43 ± 0.07 nmol Pt to 1 mg membrane prote

SMILES: COc1cc2ncnc(Nc3ccc(F)c(Cl)c3)c2cc1OCCCn1cc[n+]([Pt-2]23[n+]4ccccc4-c4cc(-c5ccc(Br)cc5)cc([n+]42)-c2cccc[n+]23)c1.F[P-](F)(F)(F)(F)F.F[P-](F)(F)(F)(F)F [Complex 4]
- distribution of Pt-containing fragment signals in the cell (A549 cells [1]; 3–12 h): very weak signal could be found in both the surface and deep inside of the cell
- distribution of Pt-containing fragment signals in the cell (A549 cells [1]; 24 h): strong signal for Pt residues found in both the membrane/cytoplasm and nucleus of the cell
